Experimental data as given in the supplement of paper PMC11006884.
This list holds what a sample rich in targets with a hit left over. The data scatter; read single values as rough. Only a part is listed here, and it is no random draw.

By UniProt entry, the sequences of proteins in these tests, tags left out. Where a name states a change or a piece, a line headed by the entry shows the natural chain unless it says otherwise.
UniProt Q9GZP4: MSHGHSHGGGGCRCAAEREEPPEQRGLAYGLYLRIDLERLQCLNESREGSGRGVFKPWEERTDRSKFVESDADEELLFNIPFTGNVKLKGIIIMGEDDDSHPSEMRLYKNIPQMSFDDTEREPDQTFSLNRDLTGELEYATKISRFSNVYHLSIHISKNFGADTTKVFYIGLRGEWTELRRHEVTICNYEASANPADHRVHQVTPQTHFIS
UniProt Q9BQG0: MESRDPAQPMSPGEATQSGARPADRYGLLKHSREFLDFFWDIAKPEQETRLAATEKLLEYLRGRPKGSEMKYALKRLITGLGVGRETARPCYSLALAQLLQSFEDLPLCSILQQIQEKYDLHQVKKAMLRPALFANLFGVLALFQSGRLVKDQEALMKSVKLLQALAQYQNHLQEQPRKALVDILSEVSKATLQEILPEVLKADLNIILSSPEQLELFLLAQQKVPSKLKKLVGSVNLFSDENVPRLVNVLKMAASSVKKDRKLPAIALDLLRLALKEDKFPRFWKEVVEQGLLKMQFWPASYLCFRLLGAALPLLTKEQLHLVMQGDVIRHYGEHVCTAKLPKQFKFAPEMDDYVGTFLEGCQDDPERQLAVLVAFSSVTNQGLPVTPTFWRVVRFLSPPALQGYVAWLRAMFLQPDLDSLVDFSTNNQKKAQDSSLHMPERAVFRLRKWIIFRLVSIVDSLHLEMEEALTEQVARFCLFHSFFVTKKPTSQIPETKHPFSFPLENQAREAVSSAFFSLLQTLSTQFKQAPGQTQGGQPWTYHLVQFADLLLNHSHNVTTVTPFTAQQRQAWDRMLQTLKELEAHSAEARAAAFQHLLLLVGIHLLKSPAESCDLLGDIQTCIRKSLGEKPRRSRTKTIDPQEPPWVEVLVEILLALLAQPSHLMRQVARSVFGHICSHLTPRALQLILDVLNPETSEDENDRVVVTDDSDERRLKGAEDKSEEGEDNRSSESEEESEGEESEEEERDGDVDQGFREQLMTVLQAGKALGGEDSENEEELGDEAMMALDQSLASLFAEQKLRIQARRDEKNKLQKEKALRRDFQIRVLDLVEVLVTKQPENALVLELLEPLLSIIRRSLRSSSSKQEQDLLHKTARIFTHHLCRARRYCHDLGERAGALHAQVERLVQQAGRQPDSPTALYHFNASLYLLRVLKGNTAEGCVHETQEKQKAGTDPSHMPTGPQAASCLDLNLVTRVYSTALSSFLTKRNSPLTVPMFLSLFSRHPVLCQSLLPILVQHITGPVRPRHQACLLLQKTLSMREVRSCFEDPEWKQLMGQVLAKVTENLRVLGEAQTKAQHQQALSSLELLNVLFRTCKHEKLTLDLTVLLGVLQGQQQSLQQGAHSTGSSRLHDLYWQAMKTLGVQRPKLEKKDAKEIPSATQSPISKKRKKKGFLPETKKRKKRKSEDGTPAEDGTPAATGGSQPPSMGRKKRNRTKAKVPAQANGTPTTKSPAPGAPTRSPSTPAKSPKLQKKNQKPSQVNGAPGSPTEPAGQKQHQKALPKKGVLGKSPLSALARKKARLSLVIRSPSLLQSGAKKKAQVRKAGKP
UniProt Q9BY44: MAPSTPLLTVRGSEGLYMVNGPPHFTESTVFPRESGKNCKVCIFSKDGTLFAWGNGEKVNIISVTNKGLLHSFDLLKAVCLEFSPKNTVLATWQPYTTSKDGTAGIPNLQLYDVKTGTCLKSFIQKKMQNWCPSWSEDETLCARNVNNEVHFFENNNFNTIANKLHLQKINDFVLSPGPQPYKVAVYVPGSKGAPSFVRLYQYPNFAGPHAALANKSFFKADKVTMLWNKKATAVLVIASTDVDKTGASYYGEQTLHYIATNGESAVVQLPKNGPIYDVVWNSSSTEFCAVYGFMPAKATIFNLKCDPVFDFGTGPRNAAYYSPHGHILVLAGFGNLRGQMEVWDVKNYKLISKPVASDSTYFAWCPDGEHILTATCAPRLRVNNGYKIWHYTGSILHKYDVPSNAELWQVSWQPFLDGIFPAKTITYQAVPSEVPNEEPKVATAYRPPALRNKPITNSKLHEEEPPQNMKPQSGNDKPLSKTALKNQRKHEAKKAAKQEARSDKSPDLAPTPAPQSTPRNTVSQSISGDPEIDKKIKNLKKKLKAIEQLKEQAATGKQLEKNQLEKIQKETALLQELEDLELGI
UniProt Q9H0A0: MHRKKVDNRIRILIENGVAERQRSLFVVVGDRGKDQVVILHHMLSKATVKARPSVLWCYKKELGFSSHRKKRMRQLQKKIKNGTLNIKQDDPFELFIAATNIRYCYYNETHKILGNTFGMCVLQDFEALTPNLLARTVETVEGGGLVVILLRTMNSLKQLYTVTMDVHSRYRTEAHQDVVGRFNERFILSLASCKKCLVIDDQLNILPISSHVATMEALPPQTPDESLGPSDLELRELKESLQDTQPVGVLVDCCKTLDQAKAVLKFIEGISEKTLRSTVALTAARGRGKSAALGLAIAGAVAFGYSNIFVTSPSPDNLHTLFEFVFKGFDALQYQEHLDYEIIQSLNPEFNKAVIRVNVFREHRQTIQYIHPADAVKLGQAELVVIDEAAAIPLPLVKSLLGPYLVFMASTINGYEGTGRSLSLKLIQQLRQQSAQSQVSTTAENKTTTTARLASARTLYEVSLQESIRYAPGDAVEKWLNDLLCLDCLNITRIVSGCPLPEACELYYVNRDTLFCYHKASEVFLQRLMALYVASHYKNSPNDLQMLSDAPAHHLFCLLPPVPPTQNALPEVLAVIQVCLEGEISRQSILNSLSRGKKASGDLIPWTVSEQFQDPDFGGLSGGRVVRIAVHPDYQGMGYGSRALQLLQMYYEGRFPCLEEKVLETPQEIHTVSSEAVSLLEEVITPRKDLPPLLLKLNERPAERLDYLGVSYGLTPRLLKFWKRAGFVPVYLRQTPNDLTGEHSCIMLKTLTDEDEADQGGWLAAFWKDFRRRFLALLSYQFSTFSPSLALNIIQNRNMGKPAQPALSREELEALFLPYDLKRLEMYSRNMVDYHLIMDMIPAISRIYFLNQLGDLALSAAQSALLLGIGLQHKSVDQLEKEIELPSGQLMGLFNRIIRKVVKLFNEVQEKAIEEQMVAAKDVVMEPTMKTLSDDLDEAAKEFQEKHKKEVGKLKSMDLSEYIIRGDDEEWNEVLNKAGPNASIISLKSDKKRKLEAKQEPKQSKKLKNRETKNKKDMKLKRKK
UniProt Q9BZL1: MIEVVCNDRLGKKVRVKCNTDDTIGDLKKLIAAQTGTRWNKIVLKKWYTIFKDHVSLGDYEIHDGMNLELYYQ
UniProt Q9H1K1: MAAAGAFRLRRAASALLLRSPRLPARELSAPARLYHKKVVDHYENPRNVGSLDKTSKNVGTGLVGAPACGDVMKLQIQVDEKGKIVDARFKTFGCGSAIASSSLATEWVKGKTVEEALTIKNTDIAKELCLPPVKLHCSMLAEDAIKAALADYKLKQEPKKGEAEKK
UniProt Q9BW91: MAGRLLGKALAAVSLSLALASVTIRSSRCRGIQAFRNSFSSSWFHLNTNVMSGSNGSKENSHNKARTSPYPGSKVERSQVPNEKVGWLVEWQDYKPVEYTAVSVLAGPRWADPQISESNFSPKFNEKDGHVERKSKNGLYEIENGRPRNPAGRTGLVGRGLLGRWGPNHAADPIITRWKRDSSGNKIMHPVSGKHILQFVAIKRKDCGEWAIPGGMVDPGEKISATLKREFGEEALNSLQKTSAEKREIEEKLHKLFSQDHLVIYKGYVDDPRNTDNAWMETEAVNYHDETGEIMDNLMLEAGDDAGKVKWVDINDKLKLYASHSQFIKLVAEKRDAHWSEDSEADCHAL
UniProt Q9BSH5: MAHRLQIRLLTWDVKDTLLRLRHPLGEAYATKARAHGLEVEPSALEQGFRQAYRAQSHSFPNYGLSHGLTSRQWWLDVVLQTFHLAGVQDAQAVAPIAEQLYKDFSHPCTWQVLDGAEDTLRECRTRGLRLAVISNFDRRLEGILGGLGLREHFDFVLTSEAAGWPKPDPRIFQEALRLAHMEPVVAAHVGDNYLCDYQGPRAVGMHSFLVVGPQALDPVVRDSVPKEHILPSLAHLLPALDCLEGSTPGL
UniProt Q9BXV9: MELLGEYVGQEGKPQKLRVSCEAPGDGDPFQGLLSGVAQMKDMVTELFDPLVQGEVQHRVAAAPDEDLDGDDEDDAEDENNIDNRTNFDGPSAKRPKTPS
UniProt Q9BTT0: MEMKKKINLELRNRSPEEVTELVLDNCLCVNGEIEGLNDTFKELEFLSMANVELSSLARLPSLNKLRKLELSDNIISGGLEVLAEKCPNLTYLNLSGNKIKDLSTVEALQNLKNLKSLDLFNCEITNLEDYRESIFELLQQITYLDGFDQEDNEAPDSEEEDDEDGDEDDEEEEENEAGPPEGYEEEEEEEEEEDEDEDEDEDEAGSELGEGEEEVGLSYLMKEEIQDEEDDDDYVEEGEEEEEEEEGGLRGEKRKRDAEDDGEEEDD
UniProt Q9BV44: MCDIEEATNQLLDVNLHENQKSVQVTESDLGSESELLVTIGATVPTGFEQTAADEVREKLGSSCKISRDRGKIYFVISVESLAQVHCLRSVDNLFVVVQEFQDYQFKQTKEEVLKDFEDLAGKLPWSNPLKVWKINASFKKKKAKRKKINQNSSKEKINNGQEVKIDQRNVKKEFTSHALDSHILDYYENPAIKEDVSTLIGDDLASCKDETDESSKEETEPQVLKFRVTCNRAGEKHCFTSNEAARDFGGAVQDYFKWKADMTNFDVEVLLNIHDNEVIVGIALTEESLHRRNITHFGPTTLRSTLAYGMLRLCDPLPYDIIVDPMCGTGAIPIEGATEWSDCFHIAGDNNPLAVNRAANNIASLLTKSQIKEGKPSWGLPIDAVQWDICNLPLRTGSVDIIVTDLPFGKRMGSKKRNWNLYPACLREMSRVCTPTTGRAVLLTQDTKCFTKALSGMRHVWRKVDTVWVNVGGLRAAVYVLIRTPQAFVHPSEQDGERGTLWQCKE
UniProt Q9C0C2: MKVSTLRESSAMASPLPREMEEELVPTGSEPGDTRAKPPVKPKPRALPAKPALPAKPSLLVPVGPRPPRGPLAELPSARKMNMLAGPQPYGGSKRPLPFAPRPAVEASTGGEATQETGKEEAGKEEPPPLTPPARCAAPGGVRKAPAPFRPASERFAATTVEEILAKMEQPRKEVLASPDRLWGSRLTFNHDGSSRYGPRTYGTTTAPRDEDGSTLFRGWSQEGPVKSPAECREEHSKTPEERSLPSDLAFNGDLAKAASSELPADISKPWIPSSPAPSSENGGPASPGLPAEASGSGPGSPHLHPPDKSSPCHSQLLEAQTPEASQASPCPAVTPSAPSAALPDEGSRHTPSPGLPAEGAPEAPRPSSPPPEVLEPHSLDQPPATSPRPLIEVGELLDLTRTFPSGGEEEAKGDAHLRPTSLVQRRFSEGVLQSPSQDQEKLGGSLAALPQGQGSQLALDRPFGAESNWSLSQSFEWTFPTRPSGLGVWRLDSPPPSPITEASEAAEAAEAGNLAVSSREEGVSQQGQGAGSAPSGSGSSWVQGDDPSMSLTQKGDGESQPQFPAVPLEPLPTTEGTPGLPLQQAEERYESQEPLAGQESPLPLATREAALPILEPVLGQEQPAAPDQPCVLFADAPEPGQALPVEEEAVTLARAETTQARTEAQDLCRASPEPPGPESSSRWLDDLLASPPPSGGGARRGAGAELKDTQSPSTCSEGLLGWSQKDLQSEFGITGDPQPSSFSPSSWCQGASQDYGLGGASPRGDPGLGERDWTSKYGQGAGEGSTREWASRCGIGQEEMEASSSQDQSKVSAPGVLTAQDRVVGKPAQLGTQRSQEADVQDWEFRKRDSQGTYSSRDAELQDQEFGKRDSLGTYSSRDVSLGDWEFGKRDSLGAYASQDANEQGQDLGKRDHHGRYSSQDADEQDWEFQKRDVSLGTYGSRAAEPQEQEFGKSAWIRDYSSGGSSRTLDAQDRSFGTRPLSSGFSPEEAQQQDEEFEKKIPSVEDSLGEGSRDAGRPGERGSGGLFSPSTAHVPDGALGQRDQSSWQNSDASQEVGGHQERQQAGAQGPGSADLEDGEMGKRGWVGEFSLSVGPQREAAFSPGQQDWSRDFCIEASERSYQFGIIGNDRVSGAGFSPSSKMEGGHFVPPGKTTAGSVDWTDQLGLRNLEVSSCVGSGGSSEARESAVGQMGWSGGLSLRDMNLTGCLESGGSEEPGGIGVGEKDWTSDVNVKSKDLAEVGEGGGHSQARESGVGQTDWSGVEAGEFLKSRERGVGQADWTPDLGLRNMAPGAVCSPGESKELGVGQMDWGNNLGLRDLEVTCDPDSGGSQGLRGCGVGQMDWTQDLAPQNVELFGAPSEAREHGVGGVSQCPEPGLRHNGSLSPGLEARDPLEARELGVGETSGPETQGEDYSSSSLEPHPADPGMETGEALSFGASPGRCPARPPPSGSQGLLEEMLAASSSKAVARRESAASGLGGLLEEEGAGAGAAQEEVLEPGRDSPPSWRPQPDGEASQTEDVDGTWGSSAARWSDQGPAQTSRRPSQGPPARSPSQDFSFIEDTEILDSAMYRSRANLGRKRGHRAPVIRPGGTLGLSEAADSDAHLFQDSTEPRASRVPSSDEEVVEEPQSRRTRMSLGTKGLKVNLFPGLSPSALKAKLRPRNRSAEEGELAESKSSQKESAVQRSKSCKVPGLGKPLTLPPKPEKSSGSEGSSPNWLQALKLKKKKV

These targets were tested with COC(=O)/C=C/c1ccccc1 [methyl cinnamate] (assay: log2 ratio of iodoacetamide-alkyne labeling of the cysteine site, DMSO over compound (competition); higher = stronger covalent engagement of the cysteine by the compound, active = 1 or more). Conditions: 500 µM; treatment time 1 h; system: HEK293T cell lysate.
Outline: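 After 1 h at ambient temperature with vehicle or electrophile (500 µM), HEK293T lysate (2 mg/mL) was labelled for 1 h with iodoacetamide alkyne and clicked to sCIP-TMT reagents. Pooled samples were trypsin-digested overnight at 37 °C, streptavidin-enriched, acid-eluted and analysed by Orbitrap Eclipse LC-MS/MS with FAIMS, then quantified in FragPipe over three replicates with duplicate channels. A cysteine's log2 competition ratio is its mean control-channel over mean compound-channel reporter intensity. Cysteines quantified in only one replicate were not included.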

log2 ratio of iodoacetamide-alkyne labeling, inactive:
UniProt Q9BXW7_C392 -0.113
TRIOBP C2233 (UniProt Q9H2D6) 0.13
UniProt Q9GZP4_C14 0.0997
COPS4 C70 (UniProt Q9BT78) 0.0951
SETD2 C1471 (UniProt Q9BYW2) -0.033
MYBBP1A C968 (UniProt Q9BQG0) -0.0359
EIF2A C306 (UniProt Q9BY44) 0.243
QRSL1 C512 (UniProt Q9H0R6) -0.199
NAT10 C489 (UniProt Q9H0A0) -0.182
TUBB6 C124 (UniProt Q9BUF5) 0.154
UniProt Q9BTE3_C200 0.226
DIDO1 C1685 (UniProt Q9BTC0) 0.525
UniProt Q9BZL1_C6 0.194
ISCU C69 (UniProt Q9H1K1) 0.177
RPAP1 C195 (UniProt Q9BWH6) -0.0722
NUDT9 C207 (UniProt Q9BW91) 0.199
ILKAP C135 (UniProt Q9H0C8) -0.0887
DIDO1 C498 (UniProt Q9BTC0) 0.463
EGLN1 C201 (UniProt Q9GZT9) 0.0087
UniProt Q9BXJ9_C465 -0.0109
HDHD3 C109 (UniProt Q9BSH5) 0.0497
UniProt Q9BXV9_C21 0.211
MRPL9 C221 (UniProt Q9BYD2) -0.000759
UniProt Q9BQI3_C494 0.0265
MSTO1 C485 (UniProt Q9BUK6) 0.00848
UniProt Q9BVS4_C449 0.335
UniProt Q9BSH4_C256 -0.208
SLC4A1AP C336 (UniProt Q9BWU0) 0.0881
WDR33 C220 (UniProt Q9C0J8) 0.116
UniProt Q9BTT6_C432 0.0938
UniProt Q9BVL2_C252 0.0467
ANP32E C123 (UniProt Q9BTT0) 0.324
THUMPD3 C391 (UniProt Q9BV44) 0.147
TNKS1BP1 C232 (UniProt Q9C0C2) 0.046
UPF3B C319 (UniProt Q9BZI7) 0.449
UBE2O C406 (UniProt Q9C0C9) 0.345
HDHD3 C196 (UniProt Q9BSH5) 0.0256
UniProt Q9BRT3_C33 0.371

Taken from the entries so far (3 entries):
log2 ratio of iodoacetamide-alkyne labeling, inactive:
HDHD3 C109 (UniProt Q9BSH5) 0.0497
UniProt Q9BXV9_C21 0.211
MRPL9 C221 (UniProt Q9BYD2) -0.000759
